Results from PubChem BioAssay AID1307 (SRMLSC, 2008).
The whole screen tested about 1,200 compounds, of which fewer than 10 were called active.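 The calls were made as follows: active = inhibition reaching a set limit at one or more tested concentrations; inactive = inhibition under that limit at every dose.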 Some of the results follow. Entries with a potency or affinity are not part of this list.

Test: RAM pathway signaling blockade in S. cerevisiae – dose response (AID 1307);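 also: 0% = DMSO vehicle wells and 100% = 10 µM 1-NA-PP1 control; higher inhibition means more yeast growth since RAM block rescues cells from 5-FOA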
Conditions: S. cerevisiae RAM network URA3 reporter, 5-FOA growth OD615, stronger effect = higher value, yeast express analog-sensitive mutant Cbk1 kinase; at 100 µM unless noted

Max inhibition, inactive:
O=C(O)CCCCn1c(SCc2ccccc2Cl)nc2ccsc2c1=O 2.82% [at 0.391 µM]
CC(C)CCOc1ncnc2c1sc1nc3c(cc12)CSC(C)(C)C3 3.77% [at 50 µM]
CCOc1ccc(/C=C/C(O)=C2/C(=O)N(C)C3(C)CC2c2ccccc2O3)cc1OC (centres undefined) 2.07% [at 0.391 µM]
COc1ccccc1N(CC(O)COc1c(C)cc(C)cc1C)S(=O)(=O)c1ccccc1 (centres undefined) 2.68% [at 0.391 µM]
C=CCNC(=O)c1ccc2c(c1)nnn2C 2.62% [at 25 µM]
CN(C)S(=O)(=O)N1CCC(c2ccc(F)cc2)C(COc2ccc3c(c2)OCO3)C1 (centres undefined) 2.55% [at 50 µM]
CC(C)=CCCC1(C)C=Cc2c(ccc3c2[nH]c2cc(O)c(C)cc23)O1 (centres undefined) 4.59%
CC(C)[C@H](NS(=O)(=O)c1ccccc1)C(=O)OCC(=O)Nc1ccccc1Sc1ccccc1 3.41%
CCCC1S/C(=N/N=C/c2ccc(OC)cc2)N(Cc2ccccc2)C1=O (centres undefined) 3.04% [at 50 µM]
CCOc1ccccc1NC(=O)C(OC(=O)c1cc(C)oc1C)c1ccccc1 (centres undefined) 4.82%
CCCOc1ccc(/C=C/C(=O)Nc2ccc([N+](=O)[O-])cc2)cc1 6.59%
O=C(c1cnc(-c2ccccc2)s1)c1ccc(Cl)cc1Cl 2.95%
O=C(COC(=O)CCCN1C(=O)c2cccc3cccc(c23)C1=O)Nc1cccc(C(F)(F)F)c1 1.89%
COCCNC(=O)C(c1ccc(F)cc1)N(C(=O)CCC(=O)Nc1nccs1)c1ccc(C)cc1 (centres undefined) 2.04% [at 3.125 µM]
CCOC(=O)c1cc(C#N)c(Oc2ccccc2)nc1-c1ccccc1 4.47%
Cc1ccc(S(=O)(=O)n2nc(-c3ccc(Cl)cc3)nc2NCc2ccco2)cc1 2.04% [at 0.196 µM]
COc1ccc(OC)c(-c2cc(C(=O)N3CCc4ccccc4C3)no2)c1 3.18%
Cc1ccc(C)c(C(=O)COC(=O)CCCC(=O)Nc2cc(C(F)(F)F)ccc2Cl)c1 3.64% [at 50 µM]
Clc1ccc(-c2csc(Nc3ccccc3)[n+]2Cc2ccco2)c(Cl)c1 2.09% [at 1.563 µM]
O=C(c1ccc(Cl)cc1[N+](=O)[O-])N(Cc1ccccc1)Cc1ccccc1 1.93% [at 12.5 µM]
Cc1cccc(N(C)C(=S)Oc2ccc3ccccc3c2)c1 2.55% [at 50 µM]
CCN(CC)S(=O)(=O)c1ccc(N2CCOCC2)c(NC(=O)CCC2CCCCC2)c1 1.43% [at 6.25 µM]
C=CCn1c(SCC(=O)Nc2ccccc2C)nnc1-c1ccncc1 2.08%
Cc1ccc(SCCNC(=S)Nc2ccc(C)c(C)c2)cc1 4.41% [at 12.5 µM]
Cc1ccccc1OCC(=O)OCC(=O)c1ccc(OCc2ccccc2)cc1 4.85% [at 50 µM]
Cc1ccc2[nH]c(=O)cc(C(=O)OCC(=O)c3ccccc3)c2c1 6.61%
CCOC(=O)c1cnn(-c2nc(-c3ccc(C)cc3)cs2)c1C(F)(F)F 1.08% [at 6.25 µM]
Cc1cc(NC(=O)COC(=O)C(Nc2ccc(C(F)(F)F)cc2Cl)C(C)C)no1 (centres undefined) 3.28% [at 12.5 µM]
O=C(COC(=O)c1ccc(-c2ccccc2)cc1)Nc1ccccc1-c1ccccc1 4.8% [at 50 µM]
OCCNc1nc(SCc2ccccc2)nc2sc3c(c12)CCC3 1.56% [at 3.125 µM]
Cc1cc(SC(C)C(=O)Nc2ncc(Cl)cc2Cl)nc2ccccc12 (centres undefined) 2.9% [at 25 µM]
Cc1ccc(S(=O)(=O)N2CCC(=O)N(C(COCc3cccc(C(F)(F)F)c3)C(C)C)CC2)cc1 (centres undefined) 2.65% [at 0.782 µM]
COc1cc(S(=O)(=O)Nc2ccccc2)ccc1N=Cc1c(C)[nH]n(-c2ccc(C)cc2)c1=O 4.25%
CCN(CC)c1ccc(C(=O)OCC(=O)Nc2ccccc2-c2ccccc2)cc1 3.81%
CCCSc1ccc(-c2nn(-c3ccccc3)cc2/C=C(/C#N)C(=O)NCCCOC)cc1 2.38% [at 25 µM]
CCc1nc(Nc2ccc3nccnc3c2)c2oc3ccccc3c2n1 13.3%
COC(=O)c1cc2c(ccn2-c2ccc(F)cc2)n1Cc1cccc(OC)c1 6.31% [at 50 µM]
O=C(CN(Cc1cccs1)C(=O)CSc1nnc(COc2ccccc2)o1)NC1CCCC1 3.76%
CCCCN1C(=O)C2(NNc3ccccc3O2)c2ccccc21 (centres undefined) 4.85%
COc1cccc(N/C(SCc2ccccc2C)=C(/C#N)C(=O)NCc2cccs2)c1 3.71% [at 25 µM]
Cc1ccc(-c2noc(CSc3nnc(CCc4ccccc4)n3-c3ccccc3)n2)cc1 3.37% [at 25 µM]
Cc1nc(C)c(NC(=O)N2CCc3ccccc32)cc1NC(=O)N1CCc2ccccc21 4.06% [at 25 µM]
CCN(CC)S(=O)(=O)c1cccc(-c2nnc(SCc3nc4ccccc4s3)o2)c1 2.03% [at 3.125 µM]
Cc1ccccc1-c1nnn(CC(=O)Nc2ccc3c(c2)OCCO3)n1 4.6%
COC(=O)C/C=C/[C@@H](C)[C@@H](/C=N/OC[C@@H](C)[C@H](OCc1ccccc1)C(C)C)NS(=O)(=O)c1ccc(C)cc1 5.22% [at 50 µM]
CSc1nnc2c3ccccc3c3ccccc3c2n1 2.77%
COc1ccc(C(=O)/C=C/c2ccc(OC)c(COc3ccc(F)cc3)c2)cc1 5.41%
Cc1ccc(S(=O)(=O)N2CCC(=O)N(C(COCc3cccc(Cl)c3)Cc3ccccc3)CC2)cc1 (centres undefined) 5.88% [at 50 µM]
Cn1nc(C(F)(F)F)c(/C=N/OC(=O)c2ccccc2Cl)c1SCc1ccc(Cl)cc1 2.09% [at 25 µM]

Filtered by structure: the entries above containing a nitro group on carbon
Max inhibition, inactive:
CCCOc1ccc(/C=C/C(=O)Nc2ccc([N+](=O)[O-])cc2)cc1 6.59%
O=C(c1ccc(Cl)cc1[N+](=O)[O-])N(Cc1ccccc1)Cc1ccccc1 1.93% [at 12.5 µM]

Retrieved one by one from above (2):
Max inhibition, inactive:
COCCNC(=O)C(c1ccc(F)cc1)N(C(=O)CCC(=O)Nc1nccs1)c1ccc(C)cc1 (centres undefined) 2.04% [at 3.125 µM]
CCCSc1ccc(-c2nn(-c3ccccc3)cc2/C=C(/C#N)C(=O)NCCCOC)cc1 2.38% [at 25 µM]
